In the supplement of paper PMC8104966:
Some of the results follow. Repeats in this data set agree poorly, so a single value says little.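 Fusion between ACE2-bearing and full-length-spike-bearing U2OS cells was measured by imaging as the percentage of nuclei with both cell types' fluorescent markers. An inhibitory hit is a non-toxic compound whose fusion z-score is below -3, more than three standard deviations beneath the plate's DMSO wells.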

What follows are molecules tested on U2OS ACE2 x SARS-CoV-2 spike co-culture (assay: cell-cell fusion (fraction fused) z-score vs plate DMSO control; higher = more fusion). Conditions: 30 µM; 5 h; toxicity class: non-toxic, passed QC.

Row | Structure (SMILES) | cell-cell fusion (z-score)
1 | Cl.NCCc1c[nH]c2ccc(O)cc12 | inactive: 2.08
2 | Cl.NCCc1c[nH]c2ccc(O)cc12 [Serotonin hydrochloride] | inactive: 3.12
3 | Cc1ncc([N+](=O)[O-])n1CC(C)O (stereo not given) [Secnidazole] | inactive: 1.83
4 | COc1ccccc1OCCNCC(O)COc1cccc2[nH]c3ccccc3c12 (stereo not given) [Carvedilol] | inactive: 0.235
5 | CCC(=O)OCC(=O)C1(OC(=O)CC)C(C)CC2C3CCC4=CC(=O)C=CC4(C)C3(Cl)C(O)CC21C (stereo not given) | inactive: 1.56
6 | O=[N+]([O-])O[C@@H]1CO[C@H]2[C@@H]1OC[C@@H]2O | inactive: 2.32
7 | CC[N+](C)(CC)CCOC(=O)C(O)(c1ccccc1)C1CCCCC1.[Br-] (stereo not given) | inactive: 2.39
8 | Cc1cnc(C(=O)NCCc2ccc(S(=O)(=O)NC(=O)NC3CCCCC3)cc2)cn1 | inactive: 2.03
9 | COS(=O)(=O)[O-].C[N+]1(C)CCC(=C(c2ccccc2)c2ccccc2)CC1 [Diphemanil mesylate] | inactive: 2.43
10 | Cl.Cl.NCCSSCCN | inactive: 2.44
11 | Cl.Cl.NCCSSCCN [Cystamine dihydrochloride] | inactive: 1.27
12 | Cc1c(N)nc([C@H](CC(N)=O)NC[C@@H](N)C(N)=O)nc1C(=O)N[C@H](C(=O)N[C@@H](C)[C@H](O)[C@@H](C)C(=O)N[C@@H](C(=O)NCCc1nc(-c2nc(C(=O)NCCC[S+](C)C)cs2)cs1)[C@@H](C)O)C(O[C@H]1O[C@H](CO)[C@H](O)[C@@H](O)[C@H]1O[C@H]1O[C@H](CO)[C@@H](O)[C@H](OC(N)=O)[C@@H]1O)c1c[nH]cn1.O=S(=O)([O-])O (stereo not given in full) [Bleomycin sulfate] | inactive: 0.475
13 | Cc1ncc(-c2ccnc(Nc3ccc(S(C)(=O)=O)cc3)n2)n1C(C)C | inactive: 0.122
14 | O=C(O)c1cccnc1 [Nicotinic acid] | inactive: 3.84
15 | CC(=O)c1ccc2c(c1)N(CCCN(C)C)c1ccccc1S2.O=C(O)/C=C\C(=O)O | inactive: 3.21
16 | COC(=O)/C(C)=C\CC12OC(C)(C)C3CC(C=C4C(=O)c5c(OC)c6c(c(CC=C(C)C)c5OC431)OC(C)(CCC=C(C)C)C=C6)C2=O (stereo not given) | inactive: 2.89
17 | COc1cc(O)c2c(=O)cc(C)oc2c1CC=C(C)C | inactive: 1.71
18 | Cc1[nH]c(=O)c(C#N)cc1-c1ccncc1 [Milrinone] | inactive: 1.71
19 | COCCCOc1ccnc(CSc2nc3ccccc3[nH]2)c1C [Rabeprazole Related Compound E] | inactive: 2.05
20 | CC1(C)C2CC[C@]3(C)C(C(=O)C=C4[C@@H]5C[C@@](C)(C(=O)O)CC[C@]5(C)CC[C@]43C)[C@@]2(C)CC[C@@H]1O (stereo not given in full) | inactive: 3.42
21 | CCc1oc2ccccc2c1C(=O)c1cc(Br)c(O)c(Br)c1 | inactive: 2.9
22 | CN1CCC[C@@H]1CCO[C@](C)(c1ccccc1)c1ccc(Cl)cc1.O=C(O)/C=C/C(=O)O | inactive: -1.31
23 | CCCCC1C(=O)N(c2ccccc2)N(c2ccccc2)C1=O [Phenylbutazone] | inactive: 3.21
24 | O=c1c(-c2ccc(O)cc2)coc2cc(O)ccc12 | inactive: 1.77

Row | Structure (SMILES) | cell-cell fusion (z-score)
25 | COc1cc(OC)c2c(c1)OC(c1ccccc1)CC2=O (stereo not given) | inactive: 1.42
26 | CCCCCCCN(CC)CCCC(O)c1ccc(NS(C)(=O)=O)cc1.CCCCCCCN(CC)CCCC(O)c1ccc(NS(C)(=O)=O)cc1.O=C(O)/C=C/C(=O)O (stereo not given) [Ibutilide Fumarate] | inactive: 2.81
27 | CC1(C)OC(=O)C(OCC2CC2)=C1c1ccc(S(C)(=O)=O)cc1 | inactive: 2.12
28 | CC#C[C@]1(O)CC[C@H]2[C@@H]3CCC4=CC(=O)CCC4=C3[C@@H](c3ccc(N(C)C)cc3)C[C@@]21C [Mifepristone] | inactive: -0.238
29 | CC(=O)Oc1ccccc1C(=O)Nc1ncc([N+](=O)[O-])s1 [Nitazoxanide] | inactive: 1.5
30 | Nc1ccn([C@@H]2O[C@H](CO)[C@@H](O)[C@@H]2O)c(=O)n1 [Cytarabine] | inactive: 3.72
31 | CC(N)[C@H]1CC[C@H](C(=O)Nc2ccncc2)CC1.Cl.Cl (stereo not given in full) | inactive: 2.17
32 | C[N+]12CCC(CC1)C(OC(=O)C(O)(c1ccccc1)c1ccccc1)C2.[Br-] (stereo not given) [Clidinium bromide] | inactive: 3.48
33 | CCN(CC)CCNc1ccc(CO)c2sc3ccccc3c(=O)c12 | inactive: 2.67
34 | CC(=O)O[C@H]1C[C@H](O[C@H]2[C@@H](O)C[C@H](O[C@H]3[C@@H](O)C[C@H](O[C@H]4CC[C@@]5(C)C(CCC6C5C[C@@H](O)[C@]5(C)[C@@H](C7=CC(=O)OC7)CC[C@]65O)C4)O[C@@H]3C)O[C@@H]2C)O[C@H](C)[C@H]1O[C@@H]1O[C@H](CO)[C@@H](O)[C@H](O)[C@H]1O (stereo not given in full) | inactive: 0.887
35 | CC1=C2NC(\C=C3/N=C(/C=C4\N\C(=C/C5=N/C(=C\2)/C(C=C)=C5C)C(C=C)=C4C)C(C)=C3CCC(O)=O)=C1CCC(O)=O | inactive: 2.5
36 | CC[C@H](Nc1ncnc2nc[nH]c12)c1nc2cccc(F)c2c(=O)n1-c1ccccc1 [Idelalisib] | inactive: 1.58
37 | CCCSc1ccc2nc(NC(=O)OC)[nH]c2c1 | inactive: 4.23
38 | CC(N)C(=O)OC(C)(C)Cc1ccc(Cl)cc1.Cl (stereo not given) [Alaproclate hydrochloride] | inactive: 1.82
39 | NCCc1ccc(O)c(O)c1 | inactive: -1.12
40 | O=C(CC(=O)c1ccccc1)c1ccccc1 | inactive: 2.49
41 | Cl.Nc1cc(Cl)c(N=C2NCCN2)c(Cl)c1 [p-Aminoclonidine hydrochloride] | inactive: 3.07
42 | Cc1cccc(C)c1NC(=O)CN1CCCC1=O [Nefiracetam] | inactive: 2.6
43 | Cc1cccc(C)c1NC(=O)CN1CCCC1=O | inactive: 0.644
44 | C#C[C@]1(OC(C)=O)CC[C@H]2[C@@H]3CCC4=CC(=O)CC[C@@H]4[C@H]3CC[C@@]21C | inactive: 1.53
45 | C[N+](C)(C)CC#CCN1CCCC1=O.[I-] [Oxotremorine methiodide] | inactive: 2.19
46 | O=C1CN=C(c2ccccc2Cl)c2cc([N+](=O)[O-])ccc2N1 | inactive: 0.285
47 | CC1=C(C(=O)O)N2C(=O)[C@@H](NC(=O)[C@H](N)C3=CCC=CC3)C2SC1 (stereo not given in full) | inactive: 0.772
48 | Cl.O=C1CN2Cc3c(ccc(Cl)c3Cl)NC2=N1 [Anagrelide] | inactive: 1.33

Retrieved one by one from above, 3 records:
Row | Structure (SMILES) | cell-cell fusion (z-score)
29 | CC(=O)Oc1ccccc1C(=O)Nc1ncc([N+](=O)[O-])s1 [Nitazoxanide] | inactive: 1.5
33 | CCN(CC)CCNc1ccc(CO)c2sc3ccccc3c(=O)c12 | inactive: 2.67
40 | O=C(CC(=O)c1ccccc1)c1ccccc1 | inactive: 2.49

(listing goes on)

Row | Structure (SMILES) | cell-cell fusion (z-score)
49 | CO[C@@]1(NC(=O)CSCC#N)C(=O)N2C(C(=O)[O-])=C(CSc3nnnn3C)CS[C@@H]21.[Na+] [Cefmetazole sodium] | inactive: 1.1
50 | CC(=O)c1ccc2c(c1)N(CCCN(C)C)c1ccccc1S2.O=C(O)/C=C\C(=O)O [Acepromazine maleate] | inactive: -0.471
51 | C=CCSC[C@@H](N)C(=O)O | inactive: 1.98
52 | Nc1ccc(S(=O)(=O)NC(=O)c2ccccc2)cc1 | inactive: 2.76
53 | CS(=O)(=O)O.Nc1ncnc2c1ncn2C1CCCC1 [9-cyclopentyladenine] | inactive: 0.516
54 | O=C(O)c1ccc(-c2c[nH]c3ncc(-c4ccccc4)cc23)cc1C1CCCC1 | inactive: 0.399
55 | CCCCCCCCCc1ccc(O)cc1 | inactive: 2.42
56 | CC(C)c1ccc2c(c1)CCC1C(C)(C(N)=O)CCCC21C (stereo not given) | inactive: 1.52
57 | Cl.Cl.Clc1ccc(N2CC3CCC(C2)N3)nn1 | inactive: 2.8
58 | COc1cc(O)c2c(=O)c(OC)c(-c3ccc(OC)c(OC)c3)oc2c1 | inactive: 1.7
59 | CC(CCC(=O)O)[C@H]1CCC2C3CC[C@@H]4C[C@H](O)CC[C@]4(C)C3C[C@H](O)[C@@]21C (stereo not given in full) | inactive: 1.83
60 | Oc1ccc(Cl)c2cccnc12 | inactive: 0.129
61 | CN[C@@H]1C(O)[C@@H](O[C@@H]2[C@@H](O)[C@H](O[C@H]3OC(CN)=CC[C@H]3N)[C@@H](N)C[C@H]2N)OC[C@]1(C)O.O=S(=O)(O)O (stereo not given in full) | inactive: 3.88
62 | CC(=O)O[C@]1(C(C)=O)CCC2C3C[C@H](C)C4=CC(=O)CC[C@]4(C)C3CC[C@@]21C (stereo not given in full) | inactive: 0.311
63 | CC(C)[C@H](N)C(=O)OCCOCn1cnc2c(=O)[nH]c(N)nc21.Cl [Valacyclovir hydrochloride] | inactive: 1.51
64 | Nc1cccc2c1CN(C1CCC(=O)NC1=O)C2=O (stereo not given) [Lenalidomide] | inactive: 1.64
65 | COC1=C(O)C(=O)c2c(cc3oc(C(C)=O)c(O)c3c2O)C1=O | inactive: 2.8
66 | Nc1nc2nc[nH]c2c(=S)[nH]1 | inactive: 0.669
67 | NS(=O)(=O)c1cc(Cl)c(Cl)c(S(N)(=O)=O)c1 [Dichlorphenamide] | inactive: 3.8
68 | O=C(O)c1cc(-c2ccc(F)cc2F)ccc1O [Diflunisal] | inactive: 3.21
69 | CN(C)[C@@H]1C(O)=C(C(N)=O)C(=O)[C@@]2(O)C(O)=C3C(=O)c4c(O)ccc(Cl)c4[C@@](C)(O)[C@H]3C[C@@H]12.Cl | inactive: 0.743
70 | CC1OC(O[C@H]2/C=C/C=C/C=C/C=C/C=C/C=C/C=C/[C@H](C)[C@@H](O)[C@@H](C)[C@H](C)OC(=O)CC(O)CC(O)CCC(O)C(O)CC(O)C[C@]3(O)C[C@H](O)C(C(=O)O)C(C2)O3)C(O)[C@H](N)C1O (stereo not given in full) | inactive: 1.92
